Reference: the supplement of paper PMC9015667
Counter-ions that a name gives are not always drawn. The list shows a part of the results. Many values rest on one well or one pass, so single values are uncertain.

Columns and labels:
Assay in all cases: reduction in cell viability relative to untreated/vehicle; higher = more growth inhibition
Details in all cases: 200 nM; 72 h
M229P = system: M229P (parental melanoma line)
M229R = system: M229R (matched melanoma line resistant to BRAF inhibitors)
M238P = system: M238P (parental melanoma line)
M238R = system: M238R (matched melanoma line resistant to BRAF inhibitors)
M249P = system: M249P (parental melanoma line)
M249R = system: M249R (matched melanoma line resistant to BRAF inhibitors)
UACC62P = system: UACC62P (parental melanoma line)
UACC62R = system: UACC62R (matched melanoma line resistant to BRAF inhibitors)

Measured: reduction in cell viability

CNC(=O)Nc1ccc(-c2nc(N3CC4CCC(C3)O4)c3cnn(C4CCC5(CC4)OCCO5)c3n2)cc1
44.8%: M229R
50.4%: M238P
48.1%: M238R
62.1%: M249R
50.6%: M229P
59.5%: UACC62R
61.1%: M249P
62.7%: UACC62P

Cn1c(=O)c(Oc2ccc(F)cc2F)cc2cnc(NC3CCOCC3)nc21
< 0%: all assays above

Cc1nnc(C(C)C)n1C1C[C@H]2CC[C@@H](C1)N2CC[C@H](NC(=O)C1CCC(F)(F)CC1)c1ccccc1 (stereo in doubt) [Maraviroc]
5.16%: M249R
< 0%: all other assays above

OC(Cn1cncn1)(Cn1cncn1)c1ccc(F)cc1F [Fluconazole]
< 0%: all assays above

CNC(=O)c1ccc(N2C(=S)N(c3ccc(C#N)c(C(F)(F)F)c3)C(=O)C2(C)C)cc1F
< 0%: all assays above

CC[C@H](C)C(=O)O[C@H]1C[C@H](O)C=C2C=C[C@H](C)[C@H](CC[C@@H](O)C[C@@H](O)CC(=O)O)[C@H]21 [Pravastatin sodium]
< 0%: all assays above

CNC(=O)c1ccc(-c2cnc3ncc(Cc4ccc5ncccc5c4)n3n2)cc1F
< 0%: all assays above

C[C@]1(CO)CN(c2cc(C(=O)Nc3ccc4c(c3)-c3c(c(C(N)=O)nn3-c3ccc(F)cc3)CC4)c(Cl)cn2)C[C@@]1(C)CO
< 0%: all assays above

CSCC[C@H](NC(=O)[C@H](Cc1c[nH]c2ccccc12)NC(=O)CCNC(=O)OC(C)(C)C)C(=O)N[C@@H](CC(=O)O)C(=O)N[C@@H](Cc1ccccc1)C(N)=O [Pentagastrin]
< 0%: all assays above

C[C@@H](c1ncncc1F)[C@](O)(Cn1cncn1)c1ccc(F)cc1F [Voriconazole]
< 0%: all assays above

CC(=O)Nc1nc(C)c(-c2ccc(Cl)c(S(=O)(=O)NCCO)c2)s1
< 0%: all assays above

Cc1cnc(CNC(=O)c2c(=O)c3ccc(N4CCCN(C)CC4)nc3n3c2sc2ccccc23)cn1
0.33%: M238P
16.3%: UACC62R
13%: M229R
2.41%: UACC62P
4.04%: M249R
< 0%: all other assays above

C=C[C@H]1CN2CC[C@H]1C[C@@H]2[C@@H](O)c1ccnc2ccc(OC)cc12 [Quinidine]
12.6%: UACC62R
< 0%: all other assays above

Cn1c2cc([S+](C)[O-])sc2c2cnn(Cc3cccc(N)c3)c(=O)c21 (configuration not stated)
< 0%: all assays above

CC=CC(=O)N(CC)c1ccccc1C [Crotamiton]
18.6%: M229R
1.25%: M249R
< 0%: all other assays above

CN1CCC(=C2c3ccccc3C=Cc3ccccc32)CC1 [Cyproheptadine hydrochloride]
5.69%: M249R
< 0%: all other assays above

Not a retest: 5 of the compounds above.
Cc1cnc(CNC(=O)c2c(=O)c3ccc(N4CCCN(C)CC4)nc3n3c2sc2ccccc23)cn1
0.33%: M238P
16.3%: UACC62R
13%: M229R
2.41%: UACC62P
4.04%: M249R
< 0%: all other assays above

C=C[C@H]1CN2CC[C@H]1C[C@@H]2[C@@H](O)c1ccnc2ccc(OC)cc12 [Quinidine]
12.6%: UACC62R
< 0%: all other assays above

Cn1c2cc([S+](C)[O-])sc2c2cnn(Cc3cccc(N)c3)c(=O)c21 (configuration not stated)
< 0%: all assays above

CC=CC(=O)N(CC)c1ccccc1C [Crotamiton]
18.6%: M229R
1.25%: M249R
< 0%: all other assays above

CN1CCC(=C2c3ccccc3C=Cc3ccccc32)CC1 [Cyproheptadine hydrochloride]
5.69%: M249R
< 0%: all other assays above

Following part:

CCCCC[C@H](O)/C=C/[C@H]1[C@H](O)CC(=O)[C@@H]1C/C=C\CCCC(=O)O [Dinoprostone]
< 0%: all assays above

Cn1c(=O)n(-c2ccc(C(C)(C)C#N)cc2)c2c3cc(-c4cnc5ccccc5c4)ccc3ncc21
38.5%: M229P
56.4%: UACC62P
41.7%: M249R
53%: M249P
45.8%: M238P
30.1%: M229R
47.6%: UACC62R
30.9%: M238R

C[C@H](NC(=O)C(=O)Nc1ccccc1C(C)(C)C)C(=O)N[C@@H](CC(=O)O)C(=O)COc1c(F)c(F)cc(F)c1F [Emricasan]
< 0%: all assays above
